No constants are given. Whether binding was seen depends on the method and setting. In cells and extracts the contact can be indirect. Some binding calls cover weakened binding; strength is not graded here.
Target: Sequestosome 1 (human (endogenous in HUVECs)) (UniProt Q13501)
Experiment: co-IP; whole-cell lysates of HUVECs in native lysis buffer with protease inhibitors; specific antibodies 12 h at 4 °C, Protein A+G agarose beads 4 h at 4 °C; Western blot; cells untreated or treated with Neu5Ac (20 mM) for 24 h

Substance: Cystine/glutamate anti-porter solute carrier family 3 member 2 (from UniProt P08195 1-529)
- binding: binds
